Measured values reported in patent publication US20090312384A1, “Benzimidazole As Cooling Compounds” (priority 2006, published 2009).

Each molecule was assayed on panelists (assay: Panel tasting of aqueous solutions for cooling intensity versus menthol at 2 ppm). Details: aqueous solution at the stated concentration.
Type: in vivo
Text: Experiments on cooling properties/intensities.
A group of panelists was asked to taste various aqueous solutions of compounds of formula (I) and to indicate which solutions had cooling intensities similar or slightly higher than that of a solution of menthol at 2 ppm.
`COc1ccc(C(=O)OC(=Cc2nc3ccccc3n2C)c2ccc(OC)cc2)cc1` [1-(4-methoxyphenyl)-2-(1-methyl-1H-benzo[d]imidazol-2-yl)vinyl 4-methoxybenzoate] was tested, and the Odor was “None”. For `CC1CCC(C(C)C)C(O)C1` (stereo not drawn) [Example 1-Menthol, 1-Menthol, reference compound], the Odor was “Minty”. `COc1ccc(C(=O)OC(=Cc2nc3cc(C)ccc3n2C(C)C)c2ccc(OC)cc2)cc1` [Example 3, 2-(1-isopropyl-5-methyl-1H-benzo[d]imidazol-2-yl)-1-(4-methoxyphenyl)vinyl 4-methoxybenzoate] was tested, and the Odor was “None”. With `COc1ccc(C(=O)OC(=Cc2nc3ccc(C)cc3n2C(C)C)c2ccc(OC)cc2)cc1` [Example 5, 2-(1-isopropyl-6-methyl-1H-benzo[d]imidazol-2-yl)-1-(4-methoxyphenyl)vinyl 4-methoxybenzoate] the Odor was “None”. `Cc1ccc(C(=O)OC(=Cc2nc3ccccc3n2C)c2ccc(C)cc2)cc1` [Example 8, 2-(1-methyl-1H-benzo[d]imidazol-2-yl)-1-p-tolylvinyl 4-methylbenzoate] was tested, and the Odor was “None”. `CCNC(=O)C1CC(C)CCC1C(C)C` (stereo not drawn) [N-ethyl p-menthanecarboxamide (WS-3), N-ethyl p-menthanecarboxamide, reference compound] was tested, and the Odor was “None”.
